Patent publication US9517222B2, “Method for the treatment of senile dementia of the Alzheimer's type” (Phenomenome Discoveries Inc., priority 2007, dated 2016)

Key:
[1] = Serum ethanolamine phospholipid levels in human cohorts (dementia severity, post-mortem pathology, age) by flow-injection MS/MS
[2] = Serum ethanolamine phospholipid ratios to PtdEt 16:0/18:0 (M01) in human cohorts
[3] = serum, females, post mortem SDAT
[4] = serum, females, post mortem control

CCCCCCCC/C=C\CCCCCCCC(=O)OC(CO/C=C\CCCCCCCCCCCCCCCC)COP(=O)(O)OCCN (centres unmarked) [Metabolite M20, Plasmenyl 18:0/18:1]
Ratio of serum levels ([1]; AD, All to CN, Male): 0.826
Ratio of serum levels ([1]; ADAS 5-19 to CN, Male): 0.892
Ratio of serum levels ([1]; ADAS 20-39 to 5-19, Male): 0.880
Ratio of serum levels ([1]; ADAS 20-39 to CN, Male): 0.786
Ratio of serum levels ([1]; ADAS 40-70 to 5-19, Male): 0.854
Ratio of serum levels ([1]; ADAS 40-70 to 20-39, Male): 0.970
Ratio of serum levels ([1]; ADAS 40-70 to CN, Male): 0.762
Serum level, Mean ([1]; Cognitive Normal, Female): 0.077
Average serum level, Mean ([1]; Cognitive Normal, Male): 0.078
Serum level, Mean ([1]; Post Mortem Ctl, Male): 0.031
Serum level, Mean ([1]; Post Mortem SDAT Male): 0.017
Ratio of serum levels ([1]; Post mortem SDAT vs Control, Male): 0.542
Serum level, Mean ([1]; SDAT, ADAS 5-19, Female): 0.064
Average serum level, Mean ([1]; SDAT, ADAS 5-19, Male): 0.069
Serum level, Mean ([1]; SDAT, ADAS 20-39, Female): 0.060
Average serum level, Mean ([1]; SDAT, ADAS 20-39, Male): 0.061
Serum level, Mean ([1]; SDAT, ADAS 40-70, Female): 0.054
Average serum level, Mean ([1]; SDAT, ADAS 40-70, Male): 0.059
Serum level, Mean ([1]; SDAT_all, Female): 0.059
Average serum level, Mean ([1]; SDAT_all, Male): 0.064
Ratio, ADAS 5-19 to CN, Female ([1]; serum level ratio, females, ADAS 5-19 vs CN): 0.828
Ratio, ADAS 20-39 to 5-19, Female ([1]; serum level ratio, females, ADAS 20-39 vs ADAS 5-19): 0.945
Ratio, ADAS 20-39 to CN, Female ([1]; serum level ratio, females, ADAS 20-39 vs CN): 0.782
Ratio, ADAS 40-70 to 5-19, Female ([1]; serum level ratio, females, ADAS 40-70 vs ADAS 5-19): 0.849
Ratio, ADAS 40-70 to 20-39, Female ([1]; serum level ratio, females, ADAS 40-70 vs ADAS 20-39): 0.898
Ratio, ADAS 40-70 to CN, Female ([1]; serum level ratio, females, ADAS 40-70 vs CN): 0.703
Ratio, 50-59 vs. 40-49, Female ([1]; serum level ratio, females, age 50-59 vs 40-49): 0.843
Ratio, 60-69 vs. 40-49, Female ([1]; serum level ratio, females, age 60-69 vs 40-49): 0.842
Ratio, 70+ vs. 40-49, Female ([1]; serum level ratio, females, age 70+ vs 40-49): 0.905
Ratio, AD, All to CN, Female ([1]; serum level ratio, females, all AD vs cognitively normal): 0.768
Ratio, Autopsy AD vs. Control, Female ([1]; serum level ratio, females, autopsy AD vs control): 0.410
Ratio, 50-59 vs. 40-49, Male ([1]; serum level ratio, males, age 50-59 vs 40-49): 0.971
Ratio, 60-69 vs. 40-49, Male ([1]; serum level ratio, males, age 60-69 vs 40-49): 0.976
Ratio, 70+ vs. 40-49, Male ([1]; serum level ratio, males, age 70+ vs 40-49): 1.014
Mean serum level, Age Ctl, 30-39, Female ([1]; serum, females, age 30-39): 0.074
Mean serum level, Age Ctl, 40-49, Female ([1]; serum, females, age 40-49): 0.075
Mean serum level, Age Ctl, 50-59, Female ([1]; serum, females, age 50-59): 0.063
Mean serum level, Age Ctl, 60-69, Female ([1]; serum, females, age 60-69): 0.063
Mean serum level, Age Ctl, 70+, Female ([1]; serum, females, age 70+): 0.068
Mean serum level, Post Mortem SDAT, Female [1, 3]: 0.021
Mean serum level, Post Mortem Ctl, Female [1, 4]: 0.050
Mean serum level, Age Ctl, 30-39, Male ([1]; serum, males, age 30-39): 0.086
Mean serum level, Age Ctl, 40-49, Male ([1]; serum, males, age 40-49): 0.070
Mean serum level, Age Ctl, 50-59, Male ([1]; serum, males, age 50-59): 0.068
Mean serum level, Age Ctl, 60-69, Male ([1]; serum, males, age 60-69): 0.069
Mean serum level, Age Ctl, 70+, Male ([1]; serum, males, age 70+): 0.071
Ratio of ethanolamine phospholipid ratios to M01 between cohorts ([2]; AD, All to CN, Male): 0.793
Ratio of ethanolamine phospholipid ratios to M01 between cohorts ([2]; ADAS 5-19 to CN, Male): 0.858
Ratio of ethanolamine phospholipid ratios to M01 between cohorts ([2]; ADAS 20-39 to CN, Male): 0.769
Ratio of ethanolamine phospholipid ratios to M01 between cohorts ([2]; ADAS 40-70 to CN, Male): 0.736
Average serum ethanolamine phospholipid ratio to M01, Mean ([2]; Cognitive Normal, Male, serum): 0.692
Average serum ethanolamine phospholipid ratio to M01, Mean ([2]; SDAT, ADAS 5-19, Male, serum): 0.593
Average serum ethanolamine phospholipid ratio to M01, Mean ([2]; SDAT, ADAS 20-39, Male, serum): 0.532
Average serum ethanolamine phospholipid ratio to M01, Mean ([2]; SDAT, ADAS 40-70, Male, serum): 0.509
Average serum ethanolamine phospholipid ratio to M01, Mean ([2]; SDAT_all, Male, serum): 0.548
Ethanolamine Phospholipid Ratio to M01, Mean, Age Ctl, 30-39, Female ([2]; human serum, females aged 30-39): 0.708
Ethanolamine Phospholipid Ratio to M01, Mean, Age Ctl, 40-49, Female ([2]; human serum, females aged 40-49): 0.682
Ethanolamine Phospholipid Ratio to M01, Mean, Age Ctl, 50-59, Female ([2]; human serum, females aged 50-59): 0.637
Ratio of Ethanolamine Phospholipid Ratio to M01, 50-59 vs. 40-49, Female ([2]; human serum, females aged 50-59 vs. females aged 40-49): 0.935
Ethanolamine Phospholipid Ratio to M01, Mean, Age Ctl, 60-69, Female ([2]; human serum, females aged 60-69): 0.524
Ratio of Ethanolamine Phospholipid Ratio to M01, 60-69 vs. 40-49, Female ([2]; human serum, females aged 60-69 vs. females aged 40-49): 0.769
Ethanolamine Phospholipid Ratio to M01, Mean, Age Ctl, 70+_Female ([2]; human serum, females aged 70+): 0.565
Ratio of Ethanolamine Phospholipid Ratio to M01, 70+ vs. 40-49, Female ([2]; human serum, females aged 70+ vs. females aged 40-49): 0.828
Ratio of Ethanolamine Phospholipid Ratio to M01, 50-59 vs. 40-49, Male ([2]; human serum, males aged 50-59 vs. males aged 40-49): 1.004
Ratio of Ethanolamine Phospholipid Ratio to M01, 60-69 vs. 40-49, Male ([2]; human serum, males aged 60-69 vs. males aged 40-49): 0.858
Ratio of Ethanolamine Phospholipid Ratio to M01, 70+ vs. 40-49, Male ([2]; human serum, males aged 70+ vs. males aged 40-49): 0.898
Ratio of ethanolamine phospholipid ratio to M01, ADAS 5-19 to CN, Female ([2]; serum, females, ADAS 5-19 vs cognitive normal): 0.878
Ratio of ethanolamine phospholipid ratio to M01, ADAS 20-39 to 5-19, Female ([2]; serum, females, ADAS 20-39 vs ADAS 5-19): 0.941
Ratio of ethanolamine phospholipid ratio to M01, ADAS 20-39 to CN, Female ([2]; serum, females, ADAS 20-39 vs cognitive normal): 0.826
Ratio of ethanolamine phospholipid ratio to M01, ADAS 40-70 to 5-19, Female ([2]; serum, females, ADAS 40-70 vs ADAS 5-19): 0.808
Ratio of ethanolamine phospholipid ratio to M01, ADAS 40-70 to 20-39, Female ([2]; serum, females, ADAS 40-70 vs ADAS 20-39): 0.858
Ratio of ethanolamine phospholipid ratio to M01, ADAS 40-70 to CN, Female ([2]; serum, females, ADAS 40-70 vs cognitive normal): 0.709
Ethanolamine phospholipid ratio to M01, Mean, SDAT, ADAS 5-19, Female ([2]; serum, females, SDAT ADAS 5-19): 0.587
Ethanolamine phospholipid ratio to M01, Mean, SDAT, ADAS 20-39, Female ([2]; serum, females, SDAT ADAS 20-39): 0.553
Ethanolamine phospholipid ratio to M01, Mean, SDAT, ADAS 40-70, Female ([2]; serum, females, SDAT ADAS 40-70): 0.474
Ratio of ethanolamine phospholipid ratio to M01, AD, All to CN, Female ([2]; serum, females, all AD vs cognitive normal): 0.800
Ethanolamine phospholipid ratio to M01, Mean, SDAT_all Female ([2]; serum, females, all SDAT): 0.535
Ratio of ethanolamine phospholipid ratio to M01, Autopsy AD vs. Control, Female ([2]; serum, females, autopsy AD vs post mortem control): 0.680
Ethanolamine phospholipid ratio to M01, Mean, Cognitive Normal, Female ([2]; serum, females, cognitive normal): 0.669
Ethanolamine phospholipid ratio to M01, Mean, Post Mortem SDAT Female [2, 3]: 0.193
Ethanolamine phospholipid ratio to M01, Mean, Post Mortem Ctl, Female [2, 4]: 0.283
Ratio of ethanolamine phospholipid ratio to M01, ADAS 20-39 to 5-19, Male ([2]; serum, males, SDAT ADAS 20-39 vs ADAS 5-19): 0.896
Ratio of ethanolamine phospholipid ratio to M01, ADAS 40-70 to 5-19, Male ([2]; serum, males, SDAT ADAS 40-70 vs ADAS 5-19): 0.858
Ratio of ethanolamine phospholipid ratio to M01, ADAS 40-70 to 20-39, Male ([2]; serum, males, SDAT ADAS 40-70 vs ADAS 20-39): 0.957
Ethanolamine phospholipid ratio to M01, Mean, Age Ctl, 30-39, Male ([2]; serum, males, age control 30-39): 0.691
Ethanolamine phospholipid ratio to M01, Mean, Age Ctl, 40-49, Male ([2]; serum, males, age control 40-49): 0.616
Ethanolamine phospholipid ratio to M01, Mean, Age Ctl, 50-59, Male ([2]; serum, males, age control 50-59): 0.619
Ethanolamine phospholipid ratio to M01, Mean, Age Ctl, 60-69, Male ([2]; serum, males, age control 60-69): 0.529
Ethanolamine phospholipid ratio to M01, Mean, Age Ctl, 70+_Male ([2]; serum, males, age control 70+): 0.553
Ethanolamine phospholipid ratio to M01, Mean, Post Mortem SDAT Male ([2]; serum, males, post mortem SDAT): 0.187
Ratio of ethanolamine phospholipid ratio to M01, SDAT vs Control (post mortem, males) ([2]; serum, males, post mortem SDAT vs post mortem control): 0.737
Ethanolamine phospholipid ratio to M01, Mean, Post Mortem Ctl, Male ([2]; serum, males, post mortem control): 0.254

A unit is not stated for every read-out.
